The values that follow come from patent EP0518769B1, “Ethanolaminebenzoate derivative, process for their preparation and pharmaceutical compositions containing them” (ADIR ET COMPAGNIE, priority 1991, dated 1992).

For the data set, the system named is Rats SDCD mâles de 52 semaines. Kind of data set: Chronic per os treatment (14 days, twice daily) in the male SDCD rat aged 52 weeks. The format is in vivo. The text has this: Les essais sont réalisés sur des rats qui présentent des anomalies pondérales associées à un hyperinsulisme et une hyperglycéridémie.
Il est recherché : • d'une part l'effet d'un traitement prolongé du produit de l'exemple 1 et de substances de référence sur ces anomalies, et • d'autre part, la consommation du glucose par le tissu adipeux est mesuré à l'état basal et en présence d'insuline (10⁻⁹ M).
On utilise des rats identiques à ceux de l'étude du traitement aigu, (cf. ci-dessus le paragraphe A- 2.1), à savoir des rats SDCD mâles agés de 52 semaines.
9 jours avant le début de l'expérimentation (J₋₉), sont constitués des lots de rats par randomisation stratifiée sur le poids.
5 jours avant le début de l'expérimentation (J₋₅), les rats sont conditionnés par administration d'une solution de gomme.
Le premier jour de l'expérimentation (J₁), les produits à tester sont administrés à différentes doses aux rats 2 fois par jour. Plus précisémment, les produits sont administrés en suspension dans la gomme entre 9 et 10 heures et 16-17 heures pendant 14 jours. Une pesée quotidienne des animaux traités est effectuée.
Le 15ème jour, les rats (à jeun depuis 18 heures) sont sacrifiés par décapitation. Le sang est recueilli directement dans une cupule. Un aliquote (50 µl) est transféré dans 500 µl d'acétate d'uranyl pour dosage de la glycémie. Un aliquote de 3 ml est transféré dans un tube contenant une solution d'héparine (30 µl pour 1 ml de sang total) et centrifugé pour séparer le plasma. Un autre aliquote de 300 µl est transféré dans un tube contenant 15 µl d'une solution d'EDTA/NaF pour dosage des lactates.
Le tissu adipeux épididymaire est prélevé pour étude métabolique immédiatement après sacrifice.
Pour chaque animal, deux fragments de tissu épididymaire droit et gauche sont émincés aux ciseaux et répartis dans 6 fioles d'incubation. Trois de ces fioles contenant 500 µl de milieu et les autres 500 µl de milieu additionné d'insuline de porc (10⁻⁹ M), la production de CO₂ est donc mesurée en triplicate pour chacun des rats de chaque groupe.

Consider `COC(CNCCOC(=O)c1ccc(CCNC(=O)CC2c3ccccc3-c3ccccc32)cc1)c1cccc(C(F)(F)F)c1` (single isomer, unassigned) [Exemple 1, Isomère lévogyre du chlorhydratede para-[2-(α-fluorén-9-ylacétylamino) éthyl] benzoatede 2-[(β-méthoxy β-métatrifluorométhylphényl) éthylamino] éthyle], for which the “Sérotonine cérébrale” value (0,5 mg/kg×2 per os) is recorded as “non modifiée”, the “Sérotonine cérébrale” value (1 mg/kg×2 per os) is on record as “non modifiée” and the “Sérotonine cérébrale” value (2,5 mg/kg×2 per os) is given as “non modifiée”.

For `CC(Cc1cccc(C(F)(F)F)c1)NCCOC(=O)c1ccccc1` (stereo not drawn) [Benfluorex, 1-(3-trifluorométhylphényl)-2-(β-benzoyloxyéthyl)aminopropane, reference compound], the “Sérotonine cérébrale” value is, setting by setting: (1 mg/kg×2 per os) “Diminuée”; (2,5 mg/kg×2 per os) “Diminuée”.
